Our source for the binding values is publication PMC8002113.

The assay has as its target Recombinant human DNase1L2, short isoform (DNase1L2-S) (human) (UniProt Q92874). Description: SEC; Superdex 200 10/300 in PBS with 1 mM CaCl2; single peak; molecular weight judged by SDS-PAGE against the value calculated from the sequence; both purified.

These are yes or no findings as the source states them, for the method shown.

B1: Recombinant human DNase1L2, short isoform (DNase1L2-S) (enzyme, UniProt Q92874-2 21-278)
chain: ALRIGAFNIQSFGDSKVSDPACGSIIAKILAGYDLALVQEVRDPDLSAVSALMEQINSVSEHEYSFVSSQPLGRDQYKEMYLFVYRKDAVSVVDTYLYPDPEDVFSREPFVVKFSAPGTAQNLVLIPLHAAPHQAVAEIDALYDVYLDVIDKWGTDDMLFLGDFNADCSYVRAQDWAAIRLRSSEVFKWLIPDSADTTVGNSDCAYDRIVACGARLRRSLKPQSATVHDFQEEFGLDQTQALAISDHFPVEVTLKFHR
Turning to B1, the binding result is “no binding”.
